# At least one peptide structure holds a part that was inferred or is arguable (an end, a ring closure or a residue). Ends that are not written are not given here.
# Key:
# [1] = tested on: human MBP-reactive T-cell clones; assay: stimulation of proliferation of human MBP-reactive T-cell clones (FIG. 8, FIG. 9); type: cell-based; conditions: FIG. 8 / FIG. 9, compared with MBP 84-102
# spleen cells = spleen cells of rats orally tolerized to whole MBP; Miller et al. FASEB 1992; cited from earlier work
# actively induced EAE = assay: suppression of actively induced EAE (MBP/CFA immunization); type: in vivo, Lewis rats; conditions: for suppression of EAE via oral tolerization: oral administration prior to immunization (FIG. 7)
# [2] = tested on: short term T-cell lines from peripheral blood mononuclear cells; assay: T-cell line reactivity to MBP, PLP and MBP peptides (proliferation assay); type: cell-based, human; conditions: MS patients compared with combined normal and other neurologic disease controls
# Description: A rapid T-cell cloning technique was used to examine whether there were immunodominant epitopes on human MBP reactive with Class II MHC phenotypes and the frequency of such reactivity. A total of 15,824 short term T-cell lines were generated from 51 human subjects by culturing peripheral blood mononuclear cells ([…]) with purified MBP (100 μg) followed 3 days later, and then every 3-4 days, by the addition of interleukin-2 (IL-2; from ABI, Columbia, Md.) and 2 units recombinant interleukin-4 (IL-4; Genzyme, Boston, Mass.). On Day 13 of culture, an aliquot from each line was tested for reactivity to MBP using the following proliferation assay: T-cell clones (1×10^5 cells/well) were plated in triplicate and cocultured with appropriate stimuli (i.e. 100 μg whole MBP or 5% IL-2) for 72 hours at 37° C., 90% humidity, 5% CO2, in 96 well flat bottomed microtiter plates (Costar). The cells were pulsed with 2 μCi [^3 H]TdR (2 Ci/mmole, New England Nuclear, Boston, Mass.) for the last 18 hours of culture. […]
compound,measurement,setting,value
CC[C@H](C)[C@H](NC(=O)[C@H](CC(N)=O)NC(=O)[C@H](CCCCN)NC(=O)[C@H](Cc1ccccc1)NC(=O)[C@H](Cc1ccccc1)NC(=O)[C@H](Cc1c[nH]cn1)NC(=O)[C@@H](NC(=O)[C@@H](NC(=O)[C@@H]1CCCN1C(=O)[C@H](CC(N)=O)NC(=O)[C@H](CCC(=O)O)NC(=O)[C@@H](N)CC(=O)O)C(C)C)C(C)C)C(=O)N[C@H](C(=O)N[C@H](C(=O)N1CCC[C@H]1C(=O)N[C@@H](CCCNC(=N)N)C(=O)N[C@H](C(=O)N1CCC[C@H]1C(=O)N[C@@H](Cc1ccc(O)cc1)C(=O)O)[C@@H](C)O)[C@@H](C)O)C(C)C [MBP 84-102tyr],ability to stimulate proliferation of MBP-reactive T-cell clones,[1],little or no effect
MDHARHGFLPRHRDTGILDS [guinea pig MBP peptide 21-40],TGF-β release from spleen cells,spleen cells,triggered TGF-β release
same,suppression of EAE via IV tolerization,actively induced EAE; intravenous administration prior to immunization (FIG. 7),but not with
same,suppression of EAE via oral tolerization,actively induced EAE,effective in suppressing EAE
RPGFGYGGRASDYKSAHKG [124-142],"mean frequency of T-cell lines reactive to the peptide, MS vs controls (FIG. 1)",[2],Significant but less striking increases
SLPQKSQRSQDENPVVHF [MBP peptide 71-90],suppression of EAE via oral tolerization,actively induced EAE,also suppressed when given orally
